# Measured values: the supplement of paper PMC11732987, “Enantioselective OTUD7B fragment discovery through chemoproteomics screening and high-throughput optimisation” (Communications Chemistry, 2025)
# Sequences of proteins named here, by UniProt entry; tags and fusion partners are left off. A change or cut given only in a name is not applied to a line headed by its entry.
# UniProt P35612: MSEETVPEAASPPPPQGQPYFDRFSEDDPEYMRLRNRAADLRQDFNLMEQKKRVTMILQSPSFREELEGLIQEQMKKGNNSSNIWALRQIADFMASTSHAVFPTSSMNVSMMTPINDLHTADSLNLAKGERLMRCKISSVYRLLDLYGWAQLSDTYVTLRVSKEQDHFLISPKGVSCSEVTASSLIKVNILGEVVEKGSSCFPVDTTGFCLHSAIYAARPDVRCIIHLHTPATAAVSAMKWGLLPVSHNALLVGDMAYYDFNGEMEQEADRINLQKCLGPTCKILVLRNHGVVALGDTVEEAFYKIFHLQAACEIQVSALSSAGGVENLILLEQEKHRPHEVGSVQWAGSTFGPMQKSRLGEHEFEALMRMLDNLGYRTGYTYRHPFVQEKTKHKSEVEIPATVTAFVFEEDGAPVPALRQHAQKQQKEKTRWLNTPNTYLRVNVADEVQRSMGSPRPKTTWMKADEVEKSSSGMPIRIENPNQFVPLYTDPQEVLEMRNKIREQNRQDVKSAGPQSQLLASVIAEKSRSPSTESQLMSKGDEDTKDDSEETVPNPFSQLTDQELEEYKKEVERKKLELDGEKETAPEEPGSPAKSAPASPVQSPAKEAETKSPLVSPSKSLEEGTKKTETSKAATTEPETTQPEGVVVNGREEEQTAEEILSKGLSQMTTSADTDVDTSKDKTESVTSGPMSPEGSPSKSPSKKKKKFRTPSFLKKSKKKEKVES
# UniProt P54886: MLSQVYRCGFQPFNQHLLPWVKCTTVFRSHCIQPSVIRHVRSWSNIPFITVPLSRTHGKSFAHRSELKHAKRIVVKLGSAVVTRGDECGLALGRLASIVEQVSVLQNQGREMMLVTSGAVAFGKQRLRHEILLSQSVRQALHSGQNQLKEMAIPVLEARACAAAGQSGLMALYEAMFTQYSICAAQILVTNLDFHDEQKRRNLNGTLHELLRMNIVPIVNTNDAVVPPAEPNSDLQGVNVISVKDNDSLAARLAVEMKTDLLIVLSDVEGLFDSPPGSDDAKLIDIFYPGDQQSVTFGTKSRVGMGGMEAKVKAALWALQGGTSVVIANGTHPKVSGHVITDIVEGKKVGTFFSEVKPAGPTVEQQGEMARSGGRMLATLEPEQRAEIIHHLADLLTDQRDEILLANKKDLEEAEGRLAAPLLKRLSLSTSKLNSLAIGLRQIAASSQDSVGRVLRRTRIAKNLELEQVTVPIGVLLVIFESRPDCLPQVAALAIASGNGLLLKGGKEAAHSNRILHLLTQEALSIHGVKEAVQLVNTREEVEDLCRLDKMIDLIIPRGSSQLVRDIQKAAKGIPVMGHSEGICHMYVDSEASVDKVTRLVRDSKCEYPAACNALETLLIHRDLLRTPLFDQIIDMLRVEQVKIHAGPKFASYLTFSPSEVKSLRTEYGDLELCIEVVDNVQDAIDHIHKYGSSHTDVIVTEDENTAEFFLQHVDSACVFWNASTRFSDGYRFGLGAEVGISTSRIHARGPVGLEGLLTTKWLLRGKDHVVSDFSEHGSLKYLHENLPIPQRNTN
# UniProt Q12802: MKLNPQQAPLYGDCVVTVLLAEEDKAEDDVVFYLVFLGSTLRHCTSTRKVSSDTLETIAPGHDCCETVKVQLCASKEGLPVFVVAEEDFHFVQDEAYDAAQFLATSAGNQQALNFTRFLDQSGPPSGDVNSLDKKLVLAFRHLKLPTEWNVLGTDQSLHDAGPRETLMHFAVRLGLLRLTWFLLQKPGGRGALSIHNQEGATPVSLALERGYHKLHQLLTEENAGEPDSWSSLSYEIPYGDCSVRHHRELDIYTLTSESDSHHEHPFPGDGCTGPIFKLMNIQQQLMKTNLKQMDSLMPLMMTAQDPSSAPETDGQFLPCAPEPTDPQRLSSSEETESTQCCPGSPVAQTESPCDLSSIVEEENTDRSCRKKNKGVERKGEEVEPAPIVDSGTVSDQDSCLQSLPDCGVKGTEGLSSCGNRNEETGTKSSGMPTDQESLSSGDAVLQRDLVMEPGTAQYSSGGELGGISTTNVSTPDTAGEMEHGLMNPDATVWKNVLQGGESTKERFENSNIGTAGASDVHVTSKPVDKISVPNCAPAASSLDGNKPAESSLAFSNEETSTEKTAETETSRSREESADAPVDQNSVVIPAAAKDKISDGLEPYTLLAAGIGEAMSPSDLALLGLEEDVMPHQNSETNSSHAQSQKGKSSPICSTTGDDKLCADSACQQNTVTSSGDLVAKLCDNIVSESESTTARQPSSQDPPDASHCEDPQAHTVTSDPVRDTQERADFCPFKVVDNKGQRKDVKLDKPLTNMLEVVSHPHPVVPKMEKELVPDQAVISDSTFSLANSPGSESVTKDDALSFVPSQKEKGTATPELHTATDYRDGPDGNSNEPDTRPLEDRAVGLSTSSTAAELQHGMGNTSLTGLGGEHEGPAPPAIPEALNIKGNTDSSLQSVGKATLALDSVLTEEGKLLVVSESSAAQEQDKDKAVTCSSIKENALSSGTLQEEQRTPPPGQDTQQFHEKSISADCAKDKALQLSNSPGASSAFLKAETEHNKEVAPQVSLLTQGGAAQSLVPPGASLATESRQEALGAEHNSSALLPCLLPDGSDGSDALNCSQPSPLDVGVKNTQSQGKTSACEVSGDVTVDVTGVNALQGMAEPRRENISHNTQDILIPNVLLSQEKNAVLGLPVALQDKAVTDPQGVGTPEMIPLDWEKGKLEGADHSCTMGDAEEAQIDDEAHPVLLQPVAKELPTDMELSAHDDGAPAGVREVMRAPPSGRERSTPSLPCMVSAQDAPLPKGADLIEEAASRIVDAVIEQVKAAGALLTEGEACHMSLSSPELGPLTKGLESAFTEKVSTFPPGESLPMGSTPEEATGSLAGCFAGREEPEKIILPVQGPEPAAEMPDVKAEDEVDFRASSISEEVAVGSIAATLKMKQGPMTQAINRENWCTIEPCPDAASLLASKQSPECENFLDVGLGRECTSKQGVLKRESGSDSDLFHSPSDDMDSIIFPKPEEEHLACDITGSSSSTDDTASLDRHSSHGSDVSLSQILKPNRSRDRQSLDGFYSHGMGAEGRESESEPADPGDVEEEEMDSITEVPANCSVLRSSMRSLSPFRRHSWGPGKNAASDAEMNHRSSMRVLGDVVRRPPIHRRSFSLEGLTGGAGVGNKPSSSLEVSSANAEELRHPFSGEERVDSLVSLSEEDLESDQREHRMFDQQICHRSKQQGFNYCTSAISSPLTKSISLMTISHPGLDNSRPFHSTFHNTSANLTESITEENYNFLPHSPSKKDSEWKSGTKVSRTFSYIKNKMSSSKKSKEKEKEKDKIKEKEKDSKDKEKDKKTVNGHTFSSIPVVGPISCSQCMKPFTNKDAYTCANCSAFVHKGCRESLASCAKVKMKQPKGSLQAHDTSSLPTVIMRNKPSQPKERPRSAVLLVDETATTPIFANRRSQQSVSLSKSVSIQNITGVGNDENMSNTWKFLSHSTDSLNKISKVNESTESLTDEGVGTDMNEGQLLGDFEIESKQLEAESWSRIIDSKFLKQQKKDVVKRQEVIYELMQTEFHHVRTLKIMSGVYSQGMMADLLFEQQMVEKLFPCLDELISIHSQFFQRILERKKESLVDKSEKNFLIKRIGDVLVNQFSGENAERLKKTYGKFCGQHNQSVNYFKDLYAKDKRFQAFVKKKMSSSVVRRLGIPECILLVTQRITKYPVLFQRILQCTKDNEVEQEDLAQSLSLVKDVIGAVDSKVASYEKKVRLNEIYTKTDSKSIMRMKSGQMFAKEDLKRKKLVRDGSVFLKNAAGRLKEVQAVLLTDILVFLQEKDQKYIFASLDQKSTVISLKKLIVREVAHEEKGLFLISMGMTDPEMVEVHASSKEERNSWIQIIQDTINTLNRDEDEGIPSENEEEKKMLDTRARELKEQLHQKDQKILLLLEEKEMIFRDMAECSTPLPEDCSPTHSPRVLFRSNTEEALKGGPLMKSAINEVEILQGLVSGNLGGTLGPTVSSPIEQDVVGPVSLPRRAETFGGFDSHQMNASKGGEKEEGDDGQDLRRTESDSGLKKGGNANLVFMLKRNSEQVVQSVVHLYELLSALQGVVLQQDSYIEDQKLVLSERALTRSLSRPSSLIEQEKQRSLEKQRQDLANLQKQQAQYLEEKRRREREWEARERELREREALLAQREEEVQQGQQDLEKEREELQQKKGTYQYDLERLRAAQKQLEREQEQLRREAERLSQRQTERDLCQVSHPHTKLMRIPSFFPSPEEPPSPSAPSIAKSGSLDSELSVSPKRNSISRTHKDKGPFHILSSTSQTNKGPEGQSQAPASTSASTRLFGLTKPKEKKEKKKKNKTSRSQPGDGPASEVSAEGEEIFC
# UniProt P11766: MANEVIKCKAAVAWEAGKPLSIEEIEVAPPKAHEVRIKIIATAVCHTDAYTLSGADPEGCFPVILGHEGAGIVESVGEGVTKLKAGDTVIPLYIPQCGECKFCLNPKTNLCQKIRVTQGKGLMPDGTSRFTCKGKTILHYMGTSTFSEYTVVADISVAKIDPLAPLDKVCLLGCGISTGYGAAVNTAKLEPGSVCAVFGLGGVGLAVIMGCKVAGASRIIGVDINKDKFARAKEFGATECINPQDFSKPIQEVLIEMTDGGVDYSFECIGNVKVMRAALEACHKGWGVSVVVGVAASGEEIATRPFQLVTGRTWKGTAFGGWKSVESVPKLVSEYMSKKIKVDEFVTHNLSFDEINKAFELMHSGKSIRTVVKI
# UniProt Q9NP73: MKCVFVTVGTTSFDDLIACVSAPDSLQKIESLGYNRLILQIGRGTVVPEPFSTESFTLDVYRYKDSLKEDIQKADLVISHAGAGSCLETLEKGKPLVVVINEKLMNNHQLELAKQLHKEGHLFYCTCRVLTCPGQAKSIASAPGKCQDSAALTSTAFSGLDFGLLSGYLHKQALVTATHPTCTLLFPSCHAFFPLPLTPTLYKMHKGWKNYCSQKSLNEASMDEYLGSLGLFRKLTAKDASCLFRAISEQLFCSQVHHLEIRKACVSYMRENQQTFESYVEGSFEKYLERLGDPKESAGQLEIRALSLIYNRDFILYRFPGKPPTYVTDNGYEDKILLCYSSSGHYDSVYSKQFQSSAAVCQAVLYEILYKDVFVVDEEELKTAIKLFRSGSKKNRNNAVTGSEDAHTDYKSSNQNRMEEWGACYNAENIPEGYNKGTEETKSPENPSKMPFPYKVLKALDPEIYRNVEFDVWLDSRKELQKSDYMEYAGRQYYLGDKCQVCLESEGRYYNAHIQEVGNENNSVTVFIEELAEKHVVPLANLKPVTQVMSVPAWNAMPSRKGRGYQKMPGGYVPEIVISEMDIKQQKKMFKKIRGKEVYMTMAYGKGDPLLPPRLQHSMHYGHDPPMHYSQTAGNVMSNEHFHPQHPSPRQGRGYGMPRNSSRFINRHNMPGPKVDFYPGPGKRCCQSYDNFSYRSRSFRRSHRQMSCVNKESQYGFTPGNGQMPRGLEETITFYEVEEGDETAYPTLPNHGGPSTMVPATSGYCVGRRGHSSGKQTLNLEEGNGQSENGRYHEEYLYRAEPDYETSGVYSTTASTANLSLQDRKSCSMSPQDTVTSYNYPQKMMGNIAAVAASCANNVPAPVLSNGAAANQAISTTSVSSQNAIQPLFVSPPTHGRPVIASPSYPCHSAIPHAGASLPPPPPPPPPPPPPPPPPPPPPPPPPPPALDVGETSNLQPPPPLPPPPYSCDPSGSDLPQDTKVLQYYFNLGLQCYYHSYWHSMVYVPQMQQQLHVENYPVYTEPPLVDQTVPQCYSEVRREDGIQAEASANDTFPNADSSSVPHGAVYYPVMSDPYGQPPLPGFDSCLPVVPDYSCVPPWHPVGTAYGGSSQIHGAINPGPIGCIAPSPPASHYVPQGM
# UniProt Q02040: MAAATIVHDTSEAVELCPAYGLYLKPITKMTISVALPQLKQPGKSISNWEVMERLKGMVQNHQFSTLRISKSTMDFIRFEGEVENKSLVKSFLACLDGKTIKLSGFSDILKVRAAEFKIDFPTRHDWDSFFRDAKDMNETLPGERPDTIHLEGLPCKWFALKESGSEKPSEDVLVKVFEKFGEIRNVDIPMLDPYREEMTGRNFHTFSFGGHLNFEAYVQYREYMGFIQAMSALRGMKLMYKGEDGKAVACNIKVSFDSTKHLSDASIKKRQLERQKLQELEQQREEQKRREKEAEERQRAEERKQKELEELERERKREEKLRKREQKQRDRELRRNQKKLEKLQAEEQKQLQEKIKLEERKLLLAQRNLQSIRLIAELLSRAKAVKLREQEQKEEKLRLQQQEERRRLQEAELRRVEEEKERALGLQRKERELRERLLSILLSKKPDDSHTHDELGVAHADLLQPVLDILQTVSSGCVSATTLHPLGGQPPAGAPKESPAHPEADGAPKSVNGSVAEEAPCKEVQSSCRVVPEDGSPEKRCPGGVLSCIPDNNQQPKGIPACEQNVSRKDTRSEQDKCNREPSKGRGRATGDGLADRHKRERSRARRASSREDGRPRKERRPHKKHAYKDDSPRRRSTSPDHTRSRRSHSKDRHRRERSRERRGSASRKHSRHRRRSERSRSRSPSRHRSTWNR
# This is one part of the list. The data scatter; read single values as rough.
# Compound: ClCC(=O)N[C@H]1CCCc2ccccc12
# Experiment: log2 mean competition ratio of IA-DTB cysteine labelling (DMSO/compound) (log2 ratio); higher = stronger cysteine engagement by compound
# Settings: 50 µM; treatment time: 4 h; cell line lysate: HEK293T
# Method: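 IA-DTB competitive cysteine chemoproteomics in HEK293T RIPA lysate. Lysates were treated with compound 29 or 30 at 50 or 200 µM for 4 h, then IA-DTB (500 µM, 1 h), trypsin-digested, NeutrAvidin-enriched and analysed by diaPASEF. Competition ratio = intensity DMSO / intensity compound (n=4 treated, n=64 DMSO); binding: mean log2 CR ≥ 1 and p ≤ 0.05 plus QC filters. Target is the cysteine site.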
row,Target,log2 mean competition ratio
1,ANAPC4 C536 (UniProt Q9UJX5),-0.172
2,ADCY9 C1204 (UniProt O60503),-0.225
3,AHSA1 C301 (UniProt O95433),0.0653
4,AHCTF1 C354 (UniProt Q8WYP5),0.954
5,AKAP9 C870 (UniProt Q99996),0.227
6,ADD2 C177 (UniProt P35612),-0.176
7,AKAP11 C1290 (UniProt Q9UKA4),-0.352
8,ADNP C223 (UniProt Q9H2P0),-0.23
9,ALAS1 C544 (UniProt P13196),-0.382
10,ALDH18A1 C546 (UniProt P54886),-0.248
11,AKAP13 C2685 (UniProt Q12802),-0.164
12,AKAP13 C73 (UniProt Q12802),0.195
13,ANK3 C307 (UniProt Q12955),0.659
14,AMOT C862 (UniProt Q4VCS5),-0.0402
15,ADH5 C282 (UniProt P11766),-0.232
16,ALG13 C132 (UniProt Q9NP73),0.0903
17,AKAP17A C95 (UniProt Q02040),-0.365
18,AIFM1 C256 (UniProt O95831),0.0395
19,ACTR2 C11 (UniProt P61160),-0.0186
20,ALG13 C86 (UniProt Q9NP73),0.165

# Same assay, conditions: 200 µM; treatment time: 4 h; cell line lysate: HEK293T
row,Target,log2 mean competition ratio
1,ANAPC4 C536 (UniProt Q9UJX5),0.128
2,ADCY9 C1204 (UniProt O60503),0.289
3,AHSA1 C301 (UniProt O95433),-0.397
4,AHCTF1 C354 (UniProt Q8WYP5),0.128
5,AKAP9 C870 (UniProt Q99996),-0.167
6,ADD2 C177 (UniProt P35612),-0.311
7,AKAP11 C1290 (UniProt Q9UKA4),-0.0699
8,ADNP C223 (UniProt Q9H2P0),0.482
9,ALAS1 C544 (UniProt P13196),0.185
10,ALDH18A1 C546 (UniProt P54886),0.115
11,AKAP13 C2685 (UniProt Q12802),0.0487
12,AKAP13 C73 (UniProt Q12802),-0.254
13,ANK3 C307 (UniProt Q12955),-0.0361
14,AMOT C862 (UniProt Q4VCS5),0.242
15,ADH5 C282 (UniProt P11766),-0.423
16,ALG13 C132 (UniProt Q9NP73),0.269
17,AKAP17A C95 (UniProt Q02040),0.0234
18,AIFM1 C256 (UniProt O95831),-0.0971
19,ACTR2 C11 (UniProt P61160),0.282
20,ALG13 C86 (UniProt Q9NP73),-0.157
